From PMC8184862
These are yes or no findings as the source states them, for the method shown. Binding seen in cells or lysates may run through a third protein. Some results given as binding are weak or reduced against the parent protein; the word gives no strength.

Sequences of proteins named here, by UniProt entry; tags and fusion partners are left off.
UniProt P47196: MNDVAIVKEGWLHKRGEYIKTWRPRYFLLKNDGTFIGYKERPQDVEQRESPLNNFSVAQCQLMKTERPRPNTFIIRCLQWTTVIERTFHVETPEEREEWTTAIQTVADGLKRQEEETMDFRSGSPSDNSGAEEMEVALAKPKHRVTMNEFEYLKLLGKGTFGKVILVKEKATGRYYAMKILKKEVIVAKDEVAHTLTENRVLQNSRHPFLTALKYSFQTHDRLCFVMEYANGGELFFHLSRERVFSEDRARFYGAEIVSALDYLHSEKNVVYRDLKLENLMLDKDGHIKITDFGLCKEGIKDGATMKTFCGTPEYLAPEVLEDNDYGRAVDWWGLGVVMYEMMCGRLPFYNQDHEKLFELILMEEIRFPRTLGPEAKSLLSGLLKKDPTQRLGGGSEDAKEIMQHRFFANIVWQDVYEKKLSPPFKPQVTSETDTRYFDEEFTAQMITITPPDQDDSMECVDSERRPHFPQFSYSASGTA
UniProt Q62812: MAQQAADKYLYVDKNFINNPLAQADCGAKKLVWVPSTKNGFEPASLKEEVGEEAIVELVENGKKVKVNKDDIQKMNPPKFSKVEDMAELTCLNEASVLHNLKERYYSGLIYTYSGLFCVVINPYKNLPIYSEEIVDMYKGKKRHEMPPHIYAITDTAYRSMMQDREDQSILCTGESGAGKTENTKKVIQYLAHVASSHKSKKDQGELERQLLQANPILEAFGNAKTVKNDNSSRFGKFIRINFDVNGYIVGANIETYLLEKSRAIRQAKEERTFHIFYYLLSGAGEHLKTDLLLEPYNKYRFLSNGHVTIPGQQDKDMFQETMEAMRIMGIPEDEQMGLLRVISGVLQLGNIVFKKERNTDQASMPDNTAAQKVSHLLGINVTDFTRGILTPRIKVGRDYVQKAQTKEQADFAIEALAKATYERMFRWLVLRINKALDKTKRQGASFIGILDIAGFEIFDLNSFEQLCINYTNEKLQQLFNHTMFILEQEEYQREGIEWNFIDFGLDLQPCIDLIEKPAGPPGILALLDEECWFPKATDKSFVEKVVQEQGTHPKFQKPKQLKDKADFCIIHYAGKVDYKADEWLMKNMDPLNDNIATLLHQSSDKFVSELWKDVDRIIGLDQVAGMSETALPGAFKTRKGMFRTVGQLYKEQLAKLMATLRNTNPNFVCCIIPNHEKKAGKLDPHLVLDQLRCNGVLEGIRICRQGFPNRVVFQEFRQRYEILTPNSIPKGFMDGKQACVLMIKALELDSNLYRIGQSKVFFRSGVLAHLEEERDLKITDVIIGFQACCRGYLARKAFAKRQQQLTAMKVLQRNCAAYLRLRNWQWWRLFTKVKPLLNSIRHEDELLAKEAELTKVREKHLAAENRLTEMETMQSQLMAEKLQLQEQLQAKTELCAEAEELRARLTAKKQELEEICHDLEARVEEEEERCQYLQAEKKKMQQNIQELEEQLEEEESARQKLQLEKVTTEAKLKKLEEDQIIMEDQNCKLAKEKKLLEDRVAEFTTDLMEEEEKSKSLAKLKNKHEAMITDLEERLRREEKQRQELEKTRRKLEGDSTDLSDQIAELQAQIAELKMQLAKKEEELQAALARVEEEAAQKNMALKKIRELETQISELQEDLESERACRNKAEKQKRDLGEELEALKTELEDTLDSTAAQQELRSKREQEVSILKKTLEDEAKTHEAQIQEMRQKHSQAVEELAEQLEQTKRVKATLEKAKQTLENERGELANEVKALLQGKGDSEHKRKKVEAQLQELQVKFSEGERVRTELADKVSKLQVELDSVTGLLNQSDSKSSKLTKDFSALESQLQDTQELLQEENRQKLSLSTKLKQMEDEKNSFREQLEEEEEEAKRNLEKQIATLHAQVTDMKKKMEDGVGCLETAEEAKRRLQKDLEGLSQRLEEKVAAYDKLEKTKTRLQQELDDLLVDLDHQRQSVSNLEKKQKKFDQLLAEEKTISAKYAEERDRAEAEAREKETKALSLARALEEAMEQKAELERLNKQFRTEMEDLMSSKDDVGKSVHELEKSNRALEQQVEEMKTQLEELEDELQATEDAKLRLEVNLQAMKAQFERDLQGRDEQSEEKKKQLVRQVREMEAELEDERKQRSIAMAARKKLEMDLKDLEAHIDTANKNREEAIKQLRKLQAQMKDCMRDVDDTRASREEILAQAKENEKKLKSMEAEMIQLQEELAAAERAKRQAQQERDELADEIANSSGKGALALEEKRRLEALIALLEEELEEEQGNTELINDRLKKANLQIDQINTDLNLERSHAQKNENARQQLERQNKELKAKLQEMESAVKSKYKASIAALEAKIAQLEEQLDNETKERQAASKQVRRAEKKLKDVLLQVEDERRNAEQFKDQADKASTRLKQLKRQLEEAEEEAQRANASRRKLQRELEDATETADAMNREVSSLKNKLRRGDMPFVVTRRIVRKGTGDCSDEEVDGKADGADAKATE

Biological target: Akt1 (rat (endogenous in REKs)) (UniProt P47196)
Test: co-IP; immunoprecipitation with Akt1 antibody (IgG1 control) from REK lysate in RIPA buffer, Dynabeads Protein G; immunoblot for total Akt, actin, Arp3 and Myh9

binding: binds
Substance: Myh9 (from UniProt Q62812 1-1961)
